From US20130116554A1, “X-RAY IMAGING AT LOW CONTRAST AGENT CONCENTRATIONS AND/OR LOW DOSE RADIATION” (priority 2010, published 2013)

Columns and labels:
[1] = CT performance phantom, low kVp scans with iterative reconstruction, dose normalized contrast to noise ratio (CNRD)
[2] = CT performance phantom, Dual Energy CT (DECT) with GSI, contrast to noise ratio (CNR)

CC(=O)N(CC(O)CN(C(C)=O)c1c(I)c(C(=O)NCC(O)CO)c(I)c(C(=O)NCC(O)CO)c1I)c1c(I)c(C(=O)NCC(O)CO)c(I)c(C(=O)NCC(O)CO)c1I (stereo not shown) [Visipaque, iodixanol]
CNRD increase ([1]; 80 kVp compared to 120 kVp, standard FBP, 1 to 10 mgI/ml): 24% | allowed reduction of iodine concentration for equal CNRD ([1]; 80 kVp compared to standard 120 kVp scan): about 29% | allowed reduction of iodine concentration ([1]; 80 kVp with ASIR): up to 53% | allowed reduction of iodine concentration ([1]; 80 kVp with Veo): ≤ 61% | CNRD increase (average) ([1]; ASIR (60%) compared to FBP, 120, 100 and 80 kVp): 47% | allowed reduction of iodine concentration ([1]; Veo at the low dose level (2.7 mGy)): 68% | CNRD increase ([1]; Veo compared to FBP, low radiation dose level (2.7 mGy)): 103% | CNRD increase (average) ([1]; Veo compared to FBP, standard radiation dose level (10.8 mGy)): 60% | improved maximum CNR ([2]; DECT scans compared to standard 120 kVp scan at same radiation dose (21.8 mGy)): ~36% | allowed reduction of iodinated contrast agent concentration for equal CNR ([2]; GSI with and without noise suppression compared to standard 120 kVp scan, 21.8 and 12.9 mGy): about 25%
